At least one compound was matched to its structure with a doubt left.
Legend:
ERK = ERK activation in NS20Y neuroblastoma cells, immunoblotting for dually phosphorylated ERK; type: cell-based, mouse; conditions: A9 1 μM, 45 minutes
SH-SY5Y cells = assay: Neurite length in NGF-treated SH-SY5Y neuroblastoma cells; type: cell-based, human
Method: Analysis of neurite length in SH-SY5Y neuroblastoma cells: SH-SY5Y neuroblastoma cells develop axonal-like processes on treatment with NGF. For analysis of process length, cells (20 fields/well) are randomly photographed at 96 and 168 hours. Neurite lengths are measured on photographic prints using a Houston Instrument HI-PAD digitizing tablet connected to a computer with appropriate software (Bioquant IV); only processes more than twice the cell body length are measured. Data from identically treated wells are combined. […] Histograms are compared using a Mann-Whitney U test (α=0.05), which makes no assumptions about the shape of the distribution.
As disclosed herein, high and sustained ERK activation induces neurite growth in […] neuroblastoma cells and protects neuronal cells from neurotoxins. To test this, SH-SY5Y human neuroblastoma cells were used, which can be induced into neuron-like phenotype by NGF treatment. This is an established method for measuring neurite growth-promoting activity in vitro in Dr. Gold's lab (Gold et al., Neurosignals. 13:122-129, 2004; Gold et al., Exp. Neurol. 147:269-278, 1997). […] Representative micrographs at 168 hours for vehicle (control), NGF (10 ng/ml), and NGF (10 ng/ml) plus A9 (100 nM) are shown in FIG. 5B.

SMILES: COC[C@H]1OC(=O)c2coc3c2[C@@]1(C)C1=C(C3=O)[C@@H]2CCC(=O)[C@@]2(C)C[C@H]1OC(C)=O [wortmannin]
- Effect of inhibitor pretreatment on A9-stimulated ERK activation (ERK): prevented A9 from stimulating ERK activation

SMILES: N#C/C(=C(/N)Sc1ccc(N)cc1)c1ccccc1C(F)(F)F [SL327, reference compound]
- Effect of MEK inhibitor on A9-induced neurite outgrowth (SH-SY5Y cells; SH-SY5Y cells): blocked A9-induced neurite outgrowth

SMILES: C=CC[C@@H]1/C=C(\C)C[C@H](C)C[C@H](OC)[C@H]2O[C@@](O)(C(=O)C(=O)N3CCCC[C@H]3C(=O)O[C@H](/C(C)=C/[C@@H]3CC[C@@H](O)[C@H](OC)C3)[C@H](C)[C@@H](O)CC1=O)[C@H](C)C[C@@H]2OC [FK506, reference compound]
- Neurite length / neurite elongation (SH-SY5Y cells; SH-SY5Y + NGF 10 ng/ml, 96 and 168 hours, FK506 100 nM, A9 10 nM, 100 nM and 1 μM): dramatically increased in length

— US20090012179A1, “Use of Tyrphostins to Stimulate Neurite Outgrowth” (priority 2004, published 2009)
